According to the supplement of paper PMC10849652:
The other results are listed elsewhere or left out. Residues, ends and D or L forms follow the SMILES beside them. *: point of attachment. Cbz = O=C(OCc1ccccc1)*

Protein sequences, listed by entry. Tags and fused reporters are not part of them. Lines headed by an entry give the natural chain unless they say otherwise; changes in a name come on top.
UniProt Q15042: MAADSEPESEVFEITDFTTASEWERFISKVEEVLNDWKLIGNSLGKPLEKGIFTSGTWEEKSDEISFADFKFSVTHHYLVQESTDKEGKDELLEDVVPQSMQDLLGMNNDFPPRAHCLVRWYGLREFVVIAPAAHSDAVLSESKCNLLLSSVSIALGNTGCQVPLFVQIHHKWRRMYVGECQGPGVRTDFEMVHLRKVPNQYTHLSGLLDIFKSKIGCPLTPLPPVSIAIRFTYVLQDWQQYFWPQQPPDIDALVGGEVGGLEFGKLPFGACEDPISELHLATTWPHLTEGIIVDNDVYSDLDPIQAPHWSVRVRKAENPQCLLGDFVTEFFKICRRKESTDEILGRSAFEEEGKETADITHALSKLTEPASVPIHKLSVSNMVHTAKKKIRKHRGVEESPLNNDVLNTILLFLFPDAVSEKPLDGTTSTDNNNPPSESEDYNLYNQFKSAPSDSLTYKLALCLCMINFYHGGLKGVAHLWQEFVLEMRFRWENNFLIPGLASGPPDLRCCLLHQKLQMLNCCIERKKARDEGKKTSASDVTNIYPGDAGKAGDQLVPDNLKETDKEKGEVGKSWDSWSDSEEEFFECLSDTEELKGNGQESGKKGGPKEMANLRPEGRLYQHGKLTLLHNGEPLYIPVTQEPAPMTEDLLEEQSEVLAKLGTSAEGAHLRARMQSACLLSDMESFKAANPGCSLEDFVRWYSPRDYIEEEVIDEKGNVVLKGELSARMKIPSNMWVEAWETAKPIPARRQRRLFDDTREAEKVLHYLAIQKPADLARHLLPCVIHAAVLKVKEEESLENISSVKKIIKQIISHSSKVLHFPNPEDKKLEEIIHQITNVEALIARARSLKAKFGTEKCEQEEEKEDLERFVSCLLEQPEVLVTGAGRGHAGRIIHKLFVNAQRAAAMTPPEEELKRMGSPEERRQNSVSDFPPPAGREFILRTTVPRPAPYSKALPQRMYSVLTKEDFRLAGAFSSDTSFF
UniProt P11234: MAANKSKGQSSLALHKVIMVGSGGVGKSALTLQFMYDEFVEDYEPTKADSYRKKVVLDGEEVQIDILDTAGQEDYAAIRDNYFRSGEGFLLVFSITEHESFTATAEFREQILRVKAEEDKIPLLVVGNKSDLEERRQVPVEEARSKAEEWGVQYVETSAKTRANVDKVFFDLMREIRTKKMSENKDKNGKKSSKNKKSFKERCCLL
UniProt P54725: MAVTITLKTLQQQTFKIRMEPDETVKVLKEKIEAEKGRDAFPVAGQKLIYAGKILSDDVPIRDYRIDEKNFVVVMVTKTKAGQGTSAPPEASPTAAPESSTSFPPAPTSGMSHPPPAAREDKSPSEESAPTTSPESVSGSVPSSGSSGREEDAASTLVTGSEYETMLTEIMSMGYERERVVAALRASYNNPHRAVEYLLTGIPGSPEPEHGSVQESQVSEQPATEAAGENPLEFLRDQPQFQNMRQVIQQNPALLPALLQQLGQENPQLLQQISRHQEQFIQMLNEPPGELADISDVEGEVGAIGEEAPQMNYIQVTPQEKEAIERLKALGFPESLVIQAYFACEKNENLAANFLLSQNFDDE
UniProt Q5HYI8: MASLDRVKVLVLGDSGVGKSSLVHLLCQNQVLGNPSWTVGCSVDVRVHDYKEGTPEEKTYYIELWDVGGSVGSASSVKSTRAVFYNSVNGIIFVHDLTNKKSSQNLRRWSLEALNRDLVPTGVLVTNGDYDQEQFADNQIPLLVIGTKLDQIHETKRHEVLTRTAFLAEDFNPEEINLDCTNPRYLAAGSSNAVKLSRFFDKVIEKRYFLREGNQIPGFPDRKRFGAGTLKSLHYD
UniProt P62834: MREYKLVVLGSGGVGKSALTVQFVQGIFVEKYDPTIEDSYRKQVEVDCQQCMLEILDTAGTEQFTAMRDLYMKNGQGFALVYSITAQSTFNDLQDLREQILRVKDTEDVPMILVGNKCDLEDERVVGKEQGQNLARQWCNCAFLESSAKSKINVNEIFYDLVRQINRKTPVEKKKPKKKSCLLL
UniProt Q9H0U4: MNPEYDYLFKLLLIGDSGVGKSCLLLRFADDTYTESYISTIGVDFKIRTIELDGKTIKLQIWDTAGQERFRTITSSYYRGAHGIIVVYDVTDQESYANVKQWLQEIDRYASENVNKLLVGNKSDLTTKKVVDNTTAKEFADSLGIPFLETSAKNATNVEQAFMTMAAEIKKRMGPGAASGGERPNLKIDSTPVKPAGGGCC
UniProt P20336: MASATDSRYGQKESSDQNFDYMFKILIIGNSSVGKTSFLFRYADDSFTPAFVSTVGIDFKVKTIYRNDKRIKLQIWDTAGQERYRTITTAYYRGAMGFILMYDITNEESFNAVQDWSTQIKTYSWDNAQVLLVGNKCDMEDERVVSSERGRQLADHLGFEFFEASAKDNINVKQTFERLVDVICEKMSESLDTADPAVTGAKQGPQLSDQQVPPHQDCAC
UniProt Q9BTL3: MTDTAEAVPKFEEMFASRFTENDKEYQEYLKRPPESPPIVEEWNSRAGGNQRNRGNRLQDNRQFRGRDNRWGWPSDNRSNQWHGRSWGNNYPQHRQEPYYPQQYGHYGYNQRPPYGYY
UniProt P10114: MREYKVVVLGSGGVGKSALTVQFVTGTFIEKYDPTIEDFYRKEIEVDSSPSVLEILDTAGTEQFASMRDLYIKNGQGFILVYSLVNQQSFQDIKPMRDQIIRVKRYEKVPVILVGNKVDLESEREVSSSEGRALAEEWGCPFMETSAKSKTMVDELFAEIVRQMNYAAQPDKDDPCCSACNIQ
UniProt Q9Y3P9: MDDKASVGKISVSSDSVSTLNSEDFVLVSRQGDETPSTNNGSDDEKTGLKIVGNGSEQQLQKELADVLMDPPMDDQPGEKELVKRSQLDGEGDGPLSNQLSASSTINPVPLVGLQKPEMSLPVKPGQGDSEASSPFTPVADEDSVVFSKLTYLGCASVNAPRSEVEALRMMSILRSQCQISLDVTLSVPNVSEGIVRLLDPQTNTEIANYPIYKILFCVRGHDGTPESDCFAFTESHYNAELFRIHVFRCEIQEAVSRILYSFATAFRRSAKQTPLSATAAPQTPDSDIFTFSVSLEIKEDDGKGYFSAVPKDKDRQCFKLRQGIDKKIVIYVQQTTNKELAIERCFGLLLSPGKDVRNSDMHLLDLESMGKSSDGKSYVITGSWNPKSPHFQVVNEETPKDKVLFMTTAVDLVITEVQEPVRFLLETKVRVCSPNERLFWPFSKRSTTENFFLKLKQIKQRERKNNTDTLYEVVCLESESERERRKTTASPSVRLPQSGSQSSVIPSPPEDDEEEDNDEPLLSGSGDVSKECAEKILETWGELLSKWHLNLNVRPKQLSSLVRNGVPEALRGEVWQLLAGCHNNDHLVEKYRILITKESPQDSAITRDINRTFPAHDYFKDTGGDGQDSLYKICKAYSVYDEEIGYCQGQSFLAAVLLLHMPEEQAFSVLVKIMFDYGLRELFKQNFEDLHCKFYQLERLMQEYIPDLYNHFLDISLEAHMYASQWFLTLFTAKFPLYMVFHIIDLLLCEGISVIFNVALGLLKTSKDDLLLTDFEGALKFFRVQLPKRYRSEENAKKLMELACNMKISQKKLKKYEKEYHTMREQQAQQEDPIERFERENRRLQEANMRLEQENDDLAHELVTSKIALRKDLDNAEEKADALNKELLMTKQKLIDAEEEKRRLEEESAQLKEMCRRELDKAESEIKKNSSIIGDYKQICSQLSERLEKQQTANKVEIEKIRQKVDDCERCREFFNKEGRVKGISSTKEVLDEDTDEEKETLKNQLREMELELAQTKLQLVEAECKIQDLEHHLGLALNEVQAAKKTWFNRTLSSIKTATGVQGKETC
UniProt Q7Z6M1: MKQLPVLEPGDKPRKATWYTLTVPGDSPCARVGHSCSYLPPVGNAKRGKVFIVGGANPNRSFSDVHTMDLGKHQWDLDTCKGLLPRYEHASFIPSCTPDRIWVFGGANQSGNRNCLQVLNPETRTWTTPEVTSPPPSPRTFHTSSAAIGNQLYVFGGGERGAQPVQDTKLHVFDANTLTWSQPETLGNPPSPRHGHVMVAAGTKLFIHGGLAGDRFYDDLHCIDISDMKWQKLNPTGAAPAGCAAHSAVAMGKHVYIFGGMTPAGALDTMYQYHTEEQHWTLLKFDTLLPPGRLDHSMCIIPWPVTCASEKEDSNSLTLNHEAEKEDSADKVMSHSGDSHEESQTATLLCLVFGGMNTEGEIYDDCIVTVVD
UniProt Q9NP72: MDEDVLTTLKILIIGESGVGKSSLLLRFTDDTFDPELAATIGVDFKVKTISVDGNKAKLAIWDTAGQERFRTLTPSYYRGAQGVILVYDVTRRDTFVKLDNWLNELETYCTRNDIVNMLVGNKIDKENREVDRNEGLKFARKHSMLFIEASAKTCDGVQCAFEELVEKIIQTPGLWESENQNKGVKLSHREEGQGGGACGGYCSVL
UniProt Q6GYQ0: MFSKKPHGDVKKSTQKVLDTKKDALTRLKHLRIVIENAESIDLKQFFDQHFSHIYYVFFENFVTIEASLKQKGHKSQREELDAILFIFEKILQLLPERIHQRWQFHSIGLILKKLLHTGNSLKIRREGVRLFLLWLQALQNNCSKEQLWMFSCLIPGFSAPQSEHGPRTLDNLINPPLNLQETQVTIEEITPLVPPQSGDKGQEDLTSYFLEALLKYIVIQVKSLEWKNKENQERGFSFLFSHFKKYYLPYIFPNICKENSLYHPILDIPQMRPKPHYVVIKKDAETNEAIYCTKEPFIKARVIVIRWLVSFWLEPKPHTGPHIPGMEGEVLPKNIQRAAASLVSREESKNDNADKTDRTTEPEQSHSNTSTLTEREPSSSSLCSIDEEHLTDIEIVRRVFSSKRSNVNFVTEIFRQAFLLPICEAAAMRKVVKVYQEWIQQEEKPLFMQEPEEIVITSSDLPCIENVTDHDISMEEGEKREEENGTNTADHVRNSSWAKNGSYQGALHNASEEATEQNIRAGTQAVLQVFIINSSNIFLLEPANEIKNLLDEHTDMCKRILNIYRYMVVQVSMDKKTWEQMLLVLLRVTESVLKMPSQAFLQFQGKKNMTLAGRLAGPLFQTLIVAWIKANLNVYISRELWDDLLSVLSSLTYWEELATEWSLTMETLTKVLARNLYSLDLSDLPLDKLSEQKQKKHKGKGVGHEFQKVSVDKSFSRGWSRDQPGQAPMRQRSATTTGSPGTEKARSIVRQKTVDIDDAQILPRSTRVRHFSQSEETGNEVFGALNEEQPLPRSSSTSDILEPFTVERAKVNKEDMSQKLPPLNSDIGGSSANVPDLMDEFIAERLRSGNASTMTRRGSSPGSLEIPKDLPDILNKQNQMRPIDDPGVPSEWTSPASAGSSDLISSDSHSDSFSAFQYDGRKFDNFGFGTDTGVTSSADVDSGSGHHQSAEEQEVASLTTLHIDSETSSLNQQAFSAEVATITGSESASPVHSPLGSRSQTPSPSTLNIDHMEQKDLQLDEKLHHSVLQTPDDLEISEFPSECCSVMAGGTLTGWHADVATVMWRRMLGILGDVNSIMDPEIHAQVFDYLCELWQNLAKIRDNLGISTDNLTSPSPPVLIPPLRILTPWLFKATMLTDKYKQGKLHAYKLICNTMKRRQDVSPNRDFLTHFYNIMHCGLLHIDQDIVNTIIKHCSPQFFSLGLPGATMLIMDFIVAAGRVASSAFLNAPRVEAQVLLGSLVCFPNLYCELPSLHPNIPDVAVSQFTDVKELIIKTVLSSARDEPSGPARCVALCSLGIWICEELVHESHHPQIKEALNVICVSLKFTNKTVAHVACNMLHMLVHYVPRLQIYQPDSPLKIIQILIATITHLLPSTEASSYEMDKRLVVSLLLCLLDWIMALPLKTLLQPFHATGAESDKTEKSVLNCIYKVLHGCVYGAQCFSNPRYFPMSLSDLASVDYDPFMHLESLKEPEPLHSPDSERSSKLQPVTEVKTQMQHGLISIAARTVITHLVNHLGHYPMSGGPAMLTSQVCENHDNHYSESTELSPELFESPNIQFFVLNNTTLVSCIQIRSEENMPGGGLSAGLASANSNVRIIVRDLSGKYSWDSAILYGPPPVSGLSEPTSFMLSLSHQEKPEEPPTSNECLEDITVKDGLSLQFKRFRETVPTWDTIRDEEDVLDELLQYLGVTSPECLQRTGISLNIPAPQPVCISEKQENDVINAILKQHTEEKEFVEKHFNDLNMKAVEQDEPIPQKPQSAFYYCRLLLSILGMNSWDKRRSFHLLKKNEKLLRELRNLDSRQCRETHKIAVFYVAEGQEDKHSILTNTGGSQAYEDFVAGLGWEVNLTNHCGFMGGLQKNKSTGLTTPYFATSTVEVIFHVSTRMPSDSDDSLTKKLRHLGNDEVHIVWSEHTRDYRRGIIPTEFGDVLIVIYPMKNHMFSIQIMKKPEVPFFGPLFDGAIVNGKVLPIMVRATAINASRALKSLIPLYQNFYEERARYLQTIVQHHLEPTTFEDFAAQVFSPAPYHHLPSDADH

Key:
Test in all cases: log2 fold change, soluble protein after heating vs DMSO (PISA); higher = thermal stabilisation; K562 cells, 10 uM, 30 min; active = over 0.2 and 3.5 SD of the protein, either way, in both replicates (recomputed)
erlotinib = compound: C#Cc1cccc(Nc2ncnc3cc(OCCOC)c(OCCOC)cc23)c1 [erlotinib]
Method in brief: (§1)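 K562 cells at 2×10^6 cells/mL were treated for 30 min with 10 μM compound, and aliquots were heated for 3 min over 48°C-58°C before pooling. Extraction used PBS with 0.5% NP-40 at 4°C, and soluble protein was the supernatant after 21,000xg for 90 min, measured by TMTpro 16plex LC-MS/MS with channel sums equalised. Thermal stability values, relative to control samples and from duplicates, are log2 fold changes.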

[1] = compound: C/C(=N\NC(=O)C1=CC(=CC=C1)S(=O)(=O)N2CCOCC2)/C3=C(C=CC(=C3)Cl)O
Method in brief: as §1

[2] = compound: C1=CC(=C(C=C1Cl)C2=NC3=NC=CN=C3C(=N2)NC4=CC=NC=C4)F
Method in brief: as §1

[3] = compound: C1=CC(=CC=C1C2=NC3=C(N2)C=C(C=C3)C(=O)N)OC4=CC=C(C=C4)Cl
Method in brief: as §1

[4] = compound: C1=CC2=C(C=CC(=C2)/C=C\3/C(=O)NC(=NCC4=CC=CS4)S3)N=C1
Method in brief: as §1

[5] = compound: C1=CC2=NC=CN=C2C=C1/C=C/3\C(=O)NC(=O)S3
Method in brief: as §1

[6] = compound: C1=CC=C(C=C1)C2=NC(=C(N2)C3=CC=NC=C3)C4=CC(=C(C=C4)Cl)O
Method in brief: as §1

[7] = compound: C1=CC=C2C(=C1)C3=NNC4=CC=CC(=C43)C2=O
Method in brief: as §1

[8] = compound: C1CCN(C1)C(=O)NC2=CC=CC(=C2)NC3=NC=C(C(=N3)NCCC4=CN=CN4)Br
Method in brief: as §1

[9] = compound: C1CN(CCC1(CC2=CC=C(C=C2)Cl)N)C3=NC=NC4=C3C=CN4
Method in brief: as §1

IRAK-1-4 Inhibitor I = compound: C1COCCN1CCN2C3=CC=CC=C3N=C2NC(=O)C4=CC(=CC=C4)[N+](=O)[O-] [IRAK-1-4 Inhibitor I]
Method in brief: as §1

ibrutinib = compound: C=CC(=O)N1CCC[C@@H](n2nc(-c3ccc(Oc4ccccc4)cc3)c3c(N)ncnc32)C1 [ibrutinib]
Method in brief: as §1

[10] = compound: CC(=O)c1cnc2ccc(-c3cc(Cl)c(O)c(Cl)c3)nc2c1N[C@H]1CC[C@H](CN(C)C)CC1
Method in brief: as §1

ralimetinib = compound: CC(C)(C)Cn1c(N)nc2ccc(-c3[nH]c(C(C)(C)C)nc3-c3ccc(F)cc3)nc21 [ralimetinib]
Method in brief: as §1

[11] = compound: CC(C)(O)CC(=O)NCCn1ccc2ncnc(Nc3ccc(Oc4cccc(C(F)(F)F)c4)c(Cl)c3)c21
Method in brief: as §1

[12] = compound: CC(C)C1=C2N=C(C=C(N2N=C1)NCC3=CC=CC=C3)NCCCCCCN
Method in brief: as §1

[13] = compound: CC(C)C[C@@H](C=O)NC(=O)[C@H](CC(C)C)NC(=O)[C@H](CC(C)C)NC(=O)OCc1ccccc1
Method in brief: as §1

pinometostat = compound: CC(C)N(C[C@H]1O[C@@H](n2cnc3c(N)ncnc32)[C@H](O)[C@@H]1O)[C@H]1C[C@@H](CCc2nc3cc(C(C)(C)C)ccc3[nH]2)C1 [pinometostat]
Method in brief: as §1

[14] = compound: CC1=C(C(CC(=O)N1)C2=CC=C(C=C2)C(F)(F)F)C(=O)NC3=C(C=C4C(=C3)C=NN4)F
Method in brief: as §1

[15] = compound: CC1=C(C2=C(C=C1)C(=O)C3=CC=CC=C3N2CCCN)C
Method in brief: as §1

Measured: log2 fold change

RAB3GAP1 (UniProt Q15042)
inactive: erlotinib 0.099 | [1] 0.073 | [2] -0.076 | [3] -0.055 | [4] 0.035 | [5] 0 | [6] -0.01 | [7] -0.023 | [8] -0.064 | [9] -0.08 | IRAK-1-4 Inhibitor I -0.111 | ibrutinib -0.007 | [10] -0.034 | ralimetinib 0.119 | [11] -0.074 | [12] -0.198 | [13] 0.17 | pinometostat 0.218 | [14] 0.038 | [15] -0.016

RALB isoform 2 (UniProt P11234)
inactive: erlotinib 0.021 | [1] 0.034 | [2] 0.015 | [3] -0.052 | [4] 0.01 | [5] 0.021 | [6] -0.025 | [7] -0.065 | [8] -0.042 | [9] 0.02 | IRAK-1-4 Inhibitor I 0.017 | ibrutinib 0.028 | [10] -0.04 | ralimetinib -0.074 | [11] 0.039 | [12] 0.078 | [13] -0.016 | pinometostat -0.082 | [14] -0.008 | [15] 0.113

RAD23A (UniProt P54725)
inactive: erlotinib 0.023 | [1] -0.05 | [2] -0.034 | [3] 0.004 | [4] -0.011 | [5] 0.029 | [6] -0.055 | [7] 0.043 | [8] 0.028 | [9] 0.02 | IRAK-1-4 Inhibitor I 0.04 | ibrutinib -0.01 | [10] -0.018 | ralimetinib -0.043 | [11] -0.016 | [12] 0.055 | [13] 0.022 | pinometostat -0.036 | [14] 0.012 | [15] -0.031

RABL3 (UniProt Q5HYI8)
inactive: erlotinib 0.023 | [1] 0.054 | [2] 0.049 | [3] 0.018 | [4] 0.04 | [5] 0.03 | [6] -0.037 | [7] -0.033 | [8] -0.012 | [9] 0.034 | IRAK-1-4 Inhibitor I 0.027 | ibrutinib -0.012 | [10] -0.038 | ralimetinib -0.044 | [11] -0.062 | [12] -0.122 | [13] 0.019 | pinometostat -0.024 | [14] -0.043 | [15] 0.024

2 successive records out of the list so far, for reference:
RAB3GAP1 (UniProt Q15042)
inactive: erlotinib 0.099 | [1] 0.073 | [2] -0.076 | [3] -0.055 | [4] 0.035 | [5] 0 | [6] -0.01 | [7] -0.023 | [8] -0.064 | [9] -0.08 | IRAK-1-4 Inhibitor I -0.111 | ibrutinib -0.007 | [10] -0.034 | ralimetinib 0.119 | [11] -0.074 | [12] -0.198 | [13] 0.17 | pinometostat 0.218 | [14] 0.038 | [15] -0.016

RALB isoform 2 (UniProt P11234)
inactive: erlotinib 0.021 | [1] 0.034 | [2] 0.015 | [3] -0.052 | [4] 0.01 | [5] 0.021 | [6] -0.025 | [7] -0.065 | [8] -0.042 | [9] 0.02 | IRAK-1-4 Inhibitor I 0.017 | ibrutinib 0.028 | [10] -0.04 | ralimetinib -0.074 | [11] 0.039 | [12] 0.078 | [13] -0.016 | pinometostat -0.082 | [14] -0.008 | [15] 0.113

Continuation:

RAP1A (UniProt P62834)
inactive: erlotinib -0.007 | [1] 0.017 | [2] 0.058 | [3] 0.02 | [4] -0.051 | [5] -0.033 | [6] 0.165 | [7] 0.007 | [8] -0.007 | [9] 0.102 | IRAK-1-4 Inhibitor I 0.054 | ibrutinib -0.006 | [10] 0.002 | ralimetinib 0.109 | [11] -0.006 | [12] 0.131 | [13] -0.036 | pinometostat -0.06 | [14] -0.059 | [15] 0.014

RAB1B (UniProt Q9H0U4)
inactive: erlotinib 0.048 | [1] -0.063 | [2] 0.038 | [3] -0.033 | [4] 0.066 | [5] 0.083 | [6] 0.07 | [7] -0.046 | [8] 0.03 | [9] 0.093 | IRAK-1-4 Inhibitor I 0.019 | ibrutinib -0.022 | [10] -0.053 | ralimetinib 0 | [11] 0.023 | [12] 0.028 | [13] -0.037 | pinometostat -0.06 | [14] -0.016 | [15] 0.002

RAB3A (UniProt P20336)
inactive: erlotinib -0.018 | [1] 0 | [2] 0.15 | [3] 0.023 | [4] -0.028 | [5] 0 | [6] -0.03 | [7] -0.004 | [8] 0.027 | [9] -0.013 | IRAK-1-4 Inhibitor I -0.004 | ibrutinib 0.001 | [10] -0.043 | ralimetinib -0.127 | [11] -0.145 | [12] 0.111 | [13] -0.089 | pinometostat 0 | [14] -0.03 | [15] 0.014

RAMAC (UniProt Q9BTL3)
inactive: erlotinib 0.069 | [1] -0.058 | [2] -0.01 | [3] -0.045 | [4] 0.01 | [5] 0.016 | [6] -0.016 | [7] -0.046 | [8] 0.012 | [9] 0.002 | IRAK-1-4 Inhibitor I 0.011 | ibrutinib 0.027 | [10] 0.032 | ralimetinib 0.036 | [11] 0.019 | [12] 0.06 | [13] 0.064 | pinometostat 0.015 | [14] -0.034 | [15] 0.138

RAP2A (UniProt P10114)
inactive: erlotinib 0.038 | [1] -0.027 | [2] -0.007 | [3] 0 | [4] 0.008 | [5] -0.011 | [6] -0.038 | [7] -0.025 | [8] -0.026 | [9] 0.058 | IRAK-1-4 Inhibitor I 0.047 | ibrutinib 0.055 | [10] -0.116 | ralimetinib -0.007 | [11] 0.016 | [12] 0.155 | [13] -0.026 | pinometostat -0.048 | [14] -0.042 | [15] 0.034

RABGAP1 (UniProt Q9Y3P9)
inactive: erlotinib 0.024 | [1] 0.032 | [2] 0.003 | [3] 0.022 | [4] 0.019 | [5] 0.071 | [6] -0.016 | [7] -0.004 | [8] -0.023 | [9] -0.037 | IRAK-1-4 Inhibitor I -0.008 | ibrutinib 0.002 | [10] -0.036 | ralimetinib 0.023 | [11] 0.017 | [12] -0.038 | [13] 0.035 | pinometostat 0.008 | [14] 0.024 | [15] 0.004

RAD21 (UniProt O60216)
inactive: erlotinib -0.042 | [1] 0.077 | [2] -0.004 | [3] 0.024 | [4] -0.024 | [5] 0.007 | [6] -0.056 | [7] -0.091 | [8] -0.049 | [9] 0.01 | IRAK-1-4 Inhibitor I -0.004 | ibrutinib -0.003 | [10] -0.119 | ralimetinib -0.042 | [11] -0.019 | [12] 0.082 | [13] 0.06 | pinometostat 0.014 | [14] -0.013 | [15] -0.123

RACK1 (UniProt P63244)
inactive: erlotinib -0.059 | [1] 0.048 | [2] 0.046 | [3] 0.011 | [4] -0.027 | [5] -0.018 | [6] 0.051 | [7] -0.022 | [8] -0.005 | [9] -0.07 | IRAK-1-4 Inhibitor I -0.01 | ibrutinib 0.015 | [10] 0.019 | ralimetinib -0.007 | [11] 0.007 | [12] -0.024 | [13] -0.09 | pinometostat -0.059 | [14] -0.019 | [15] -0.002

RABEPK (UniProt Q7Z6M1)
inactive: erlotinib 0.046 | [1] 0.083 | [2] 0.054 | [3] 0.018 | [4] 0.003 | [5] -0.001 | [6] -0.013 | [7] 0.003 | [8] -0.022 | [9] 0.073 | IRAK-1-4 Inhibitor I 0.069 | ibrutinib 0.038 | [10] 0.068 | ralimetinib -0.032 | [11] -0.016 | [12] 0.041 | [13] 0.011 | pinometostat 0.003 | [14] 0.024 | [15] 0.025

RAB18 (UniProt Q9NP72)
inactive: erlotinib -0.025 | [1] 0.03 | [2] 0.013 | [3] 0.012 | [4] -0.059 | [5] 0.008 | [6] -0.044 | [7] -0.036 | [8] -0.039 | [9] 0.041 | IRAK-1-4 Inhibitor I 0.013 | ibrutinib 0.016 | [10] -0.002 | ralimetinib -0.07 | [11] 0.046 | [12] 0.058 | [13] -0.002 | pinometostat -0.055 | [14] 0.019 | [15] 0.014

RALGAPA1 isoform 6 (UniProt Q6GYQ0)
inactive: erlotinib -0.014 | [1] 0.09 | [2] 0.042 | [3] -0.039 | [4] -0.031 | [5] 0.084 | [6] 0.006 | [7] 0.029 | [8] 0.104 | [9] 0.365 | IRAK-1-4 Inhibitor I -0.088 | ibrutinib 0.013 | [10] -0.05 | ralimetinib -0.059 | [11] -0.191 | [12] -0.04 | [13] 0.002 | pinometostat 0.059 | [14] -0.064 | [15] -0.12

RAB3IP (UniProt Q96QF0)
inactive: erlotinib -0.008 | [1] -0.179 | [2] 0.233 | [3] 0.04 | [4] 0.2 | [5] -0.009 | [6] -0.036 | [7] -0.066 | [8] -0.137 | [9] 0.015 | IRAK-1-4 Inhibitor I 0.096 | ibrutinib 0.007 | [10] -0.015 | ralimetinib 0.021 | [11] -0.137 | [12] 0.058 | [13] 0.045 | pinometostat -0.011 | [14] -0.078 | [15] 0.008
